# According to article PMC8494447:
# By UniProt entry, the sequences of proteins in these tests, tags left out.
# UniProt Q9Y572: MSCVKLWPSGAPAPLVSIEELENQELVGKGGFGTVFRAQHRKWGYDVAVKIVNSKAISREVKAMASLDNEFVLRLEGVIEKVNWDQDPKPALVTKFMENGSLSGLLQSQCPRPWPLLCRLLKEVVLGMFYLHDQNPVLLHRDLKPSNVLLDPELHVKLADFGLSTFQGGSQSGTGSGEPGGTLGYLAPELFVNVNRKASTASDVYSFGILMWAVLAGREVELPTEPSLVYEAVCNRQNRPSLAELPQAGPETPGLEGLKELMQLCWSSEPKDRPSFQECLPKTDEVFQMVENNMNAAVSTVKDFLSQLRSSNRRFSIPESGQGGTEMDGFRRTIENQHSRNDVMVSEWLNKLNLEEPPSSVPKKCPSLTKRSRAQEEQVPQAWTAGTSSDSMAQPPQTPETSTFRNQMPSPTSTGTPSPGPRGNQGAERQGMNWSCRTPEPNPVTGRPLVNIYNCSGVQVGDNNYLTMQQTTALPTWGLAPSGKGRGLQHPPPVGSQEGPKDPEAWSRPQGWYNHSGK
# UniProt Q13546: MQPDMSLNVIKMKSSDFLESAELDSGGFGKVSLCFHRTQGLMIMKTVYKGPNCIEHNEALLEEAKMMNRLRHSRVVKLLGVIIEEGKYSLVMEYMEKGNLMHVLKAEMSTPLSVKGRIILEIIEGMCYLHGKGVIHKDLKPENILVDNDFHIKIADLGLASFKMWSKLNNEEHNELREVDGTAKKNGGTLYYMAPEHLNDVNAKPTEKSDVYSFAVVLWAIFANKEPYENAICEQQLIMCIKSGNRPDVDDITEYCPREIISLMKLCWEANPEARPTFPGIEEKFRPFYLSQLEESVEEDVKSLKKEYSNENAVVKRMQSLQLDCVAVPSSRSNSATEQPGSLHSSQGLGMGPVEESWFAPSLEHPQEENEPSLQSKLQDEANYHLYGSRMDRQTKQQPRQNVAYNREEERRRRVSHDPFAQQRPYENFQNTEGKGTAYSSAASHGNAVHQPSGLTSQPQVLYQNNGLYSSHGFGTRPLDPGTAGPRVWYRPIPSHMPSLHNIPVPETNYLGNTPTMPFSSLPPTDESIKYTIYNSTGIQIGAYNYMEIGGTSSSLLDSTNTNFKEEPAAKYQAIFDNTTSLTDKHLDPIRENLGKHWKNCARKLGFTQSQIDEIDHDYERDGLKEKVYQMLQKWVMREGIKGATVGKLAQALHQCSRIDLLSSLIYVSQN
# Results are given in words; binding and its absence hold for the method and conditions named. In cells and extracts the contact can be indirect. Some binding calls cover weakened binding; strength is not graded here. For some assays here: Where a sequence is shown, tags or fusion partners need not be part of it.
# Columns and labels:
# [1] = biological target: T1, Flag-HSPA13 (HT29, stable) (UniProt P48723); assay: co-IP; HT29 stably expressing Flag-HSPA13, TNFα for the indicated time; IP with anti-Flag; endogenous partner detected by blot
# T1 sequence: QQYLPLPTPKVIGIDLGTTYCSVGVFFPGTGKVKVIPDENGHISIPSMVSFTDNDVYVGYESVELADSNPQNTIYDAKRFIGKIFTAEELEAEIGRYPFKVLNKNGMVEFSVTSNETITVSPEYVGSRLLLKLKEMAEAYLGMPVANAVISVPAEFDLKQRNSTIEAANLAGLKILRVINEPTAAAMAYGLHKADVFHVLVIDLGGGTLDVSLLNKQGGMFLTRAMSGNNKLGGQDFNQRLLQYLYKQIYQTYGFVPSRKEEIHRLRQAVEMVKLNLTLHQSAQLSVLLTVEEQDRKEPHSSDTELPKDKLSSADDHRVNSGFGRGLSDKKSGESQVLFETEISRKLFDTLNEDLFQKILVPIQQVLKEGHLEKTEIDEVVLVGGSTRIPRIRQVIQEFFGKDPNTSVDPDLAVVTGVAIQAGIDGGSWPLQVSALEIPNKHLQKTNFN
# [2] = biological target: RIP3, endogenous in HT29 (human (endogenous in HT29)) (UniProt Q9Y572); assay: co-IP; HT29 HSPA13+/+ or HSPA13−/− treated with TNFα (20 ng/ml), 20 nM Smac mimetic and 20 μM Z-VAD (T/S/Z) for 6 hours; IP with anti-RIP3 or control IgG
substance,measurement,setting,value
"RIP1, endogenous in HT29 (from UniProt Q13546 1-671)",binding,[1],binds
same,binding,[2],binds
